The results in this text go back to publication PMC12586852.

Protein sequences, listed by entry. Tags and fused reporters are not part of them.
UniProt P78527: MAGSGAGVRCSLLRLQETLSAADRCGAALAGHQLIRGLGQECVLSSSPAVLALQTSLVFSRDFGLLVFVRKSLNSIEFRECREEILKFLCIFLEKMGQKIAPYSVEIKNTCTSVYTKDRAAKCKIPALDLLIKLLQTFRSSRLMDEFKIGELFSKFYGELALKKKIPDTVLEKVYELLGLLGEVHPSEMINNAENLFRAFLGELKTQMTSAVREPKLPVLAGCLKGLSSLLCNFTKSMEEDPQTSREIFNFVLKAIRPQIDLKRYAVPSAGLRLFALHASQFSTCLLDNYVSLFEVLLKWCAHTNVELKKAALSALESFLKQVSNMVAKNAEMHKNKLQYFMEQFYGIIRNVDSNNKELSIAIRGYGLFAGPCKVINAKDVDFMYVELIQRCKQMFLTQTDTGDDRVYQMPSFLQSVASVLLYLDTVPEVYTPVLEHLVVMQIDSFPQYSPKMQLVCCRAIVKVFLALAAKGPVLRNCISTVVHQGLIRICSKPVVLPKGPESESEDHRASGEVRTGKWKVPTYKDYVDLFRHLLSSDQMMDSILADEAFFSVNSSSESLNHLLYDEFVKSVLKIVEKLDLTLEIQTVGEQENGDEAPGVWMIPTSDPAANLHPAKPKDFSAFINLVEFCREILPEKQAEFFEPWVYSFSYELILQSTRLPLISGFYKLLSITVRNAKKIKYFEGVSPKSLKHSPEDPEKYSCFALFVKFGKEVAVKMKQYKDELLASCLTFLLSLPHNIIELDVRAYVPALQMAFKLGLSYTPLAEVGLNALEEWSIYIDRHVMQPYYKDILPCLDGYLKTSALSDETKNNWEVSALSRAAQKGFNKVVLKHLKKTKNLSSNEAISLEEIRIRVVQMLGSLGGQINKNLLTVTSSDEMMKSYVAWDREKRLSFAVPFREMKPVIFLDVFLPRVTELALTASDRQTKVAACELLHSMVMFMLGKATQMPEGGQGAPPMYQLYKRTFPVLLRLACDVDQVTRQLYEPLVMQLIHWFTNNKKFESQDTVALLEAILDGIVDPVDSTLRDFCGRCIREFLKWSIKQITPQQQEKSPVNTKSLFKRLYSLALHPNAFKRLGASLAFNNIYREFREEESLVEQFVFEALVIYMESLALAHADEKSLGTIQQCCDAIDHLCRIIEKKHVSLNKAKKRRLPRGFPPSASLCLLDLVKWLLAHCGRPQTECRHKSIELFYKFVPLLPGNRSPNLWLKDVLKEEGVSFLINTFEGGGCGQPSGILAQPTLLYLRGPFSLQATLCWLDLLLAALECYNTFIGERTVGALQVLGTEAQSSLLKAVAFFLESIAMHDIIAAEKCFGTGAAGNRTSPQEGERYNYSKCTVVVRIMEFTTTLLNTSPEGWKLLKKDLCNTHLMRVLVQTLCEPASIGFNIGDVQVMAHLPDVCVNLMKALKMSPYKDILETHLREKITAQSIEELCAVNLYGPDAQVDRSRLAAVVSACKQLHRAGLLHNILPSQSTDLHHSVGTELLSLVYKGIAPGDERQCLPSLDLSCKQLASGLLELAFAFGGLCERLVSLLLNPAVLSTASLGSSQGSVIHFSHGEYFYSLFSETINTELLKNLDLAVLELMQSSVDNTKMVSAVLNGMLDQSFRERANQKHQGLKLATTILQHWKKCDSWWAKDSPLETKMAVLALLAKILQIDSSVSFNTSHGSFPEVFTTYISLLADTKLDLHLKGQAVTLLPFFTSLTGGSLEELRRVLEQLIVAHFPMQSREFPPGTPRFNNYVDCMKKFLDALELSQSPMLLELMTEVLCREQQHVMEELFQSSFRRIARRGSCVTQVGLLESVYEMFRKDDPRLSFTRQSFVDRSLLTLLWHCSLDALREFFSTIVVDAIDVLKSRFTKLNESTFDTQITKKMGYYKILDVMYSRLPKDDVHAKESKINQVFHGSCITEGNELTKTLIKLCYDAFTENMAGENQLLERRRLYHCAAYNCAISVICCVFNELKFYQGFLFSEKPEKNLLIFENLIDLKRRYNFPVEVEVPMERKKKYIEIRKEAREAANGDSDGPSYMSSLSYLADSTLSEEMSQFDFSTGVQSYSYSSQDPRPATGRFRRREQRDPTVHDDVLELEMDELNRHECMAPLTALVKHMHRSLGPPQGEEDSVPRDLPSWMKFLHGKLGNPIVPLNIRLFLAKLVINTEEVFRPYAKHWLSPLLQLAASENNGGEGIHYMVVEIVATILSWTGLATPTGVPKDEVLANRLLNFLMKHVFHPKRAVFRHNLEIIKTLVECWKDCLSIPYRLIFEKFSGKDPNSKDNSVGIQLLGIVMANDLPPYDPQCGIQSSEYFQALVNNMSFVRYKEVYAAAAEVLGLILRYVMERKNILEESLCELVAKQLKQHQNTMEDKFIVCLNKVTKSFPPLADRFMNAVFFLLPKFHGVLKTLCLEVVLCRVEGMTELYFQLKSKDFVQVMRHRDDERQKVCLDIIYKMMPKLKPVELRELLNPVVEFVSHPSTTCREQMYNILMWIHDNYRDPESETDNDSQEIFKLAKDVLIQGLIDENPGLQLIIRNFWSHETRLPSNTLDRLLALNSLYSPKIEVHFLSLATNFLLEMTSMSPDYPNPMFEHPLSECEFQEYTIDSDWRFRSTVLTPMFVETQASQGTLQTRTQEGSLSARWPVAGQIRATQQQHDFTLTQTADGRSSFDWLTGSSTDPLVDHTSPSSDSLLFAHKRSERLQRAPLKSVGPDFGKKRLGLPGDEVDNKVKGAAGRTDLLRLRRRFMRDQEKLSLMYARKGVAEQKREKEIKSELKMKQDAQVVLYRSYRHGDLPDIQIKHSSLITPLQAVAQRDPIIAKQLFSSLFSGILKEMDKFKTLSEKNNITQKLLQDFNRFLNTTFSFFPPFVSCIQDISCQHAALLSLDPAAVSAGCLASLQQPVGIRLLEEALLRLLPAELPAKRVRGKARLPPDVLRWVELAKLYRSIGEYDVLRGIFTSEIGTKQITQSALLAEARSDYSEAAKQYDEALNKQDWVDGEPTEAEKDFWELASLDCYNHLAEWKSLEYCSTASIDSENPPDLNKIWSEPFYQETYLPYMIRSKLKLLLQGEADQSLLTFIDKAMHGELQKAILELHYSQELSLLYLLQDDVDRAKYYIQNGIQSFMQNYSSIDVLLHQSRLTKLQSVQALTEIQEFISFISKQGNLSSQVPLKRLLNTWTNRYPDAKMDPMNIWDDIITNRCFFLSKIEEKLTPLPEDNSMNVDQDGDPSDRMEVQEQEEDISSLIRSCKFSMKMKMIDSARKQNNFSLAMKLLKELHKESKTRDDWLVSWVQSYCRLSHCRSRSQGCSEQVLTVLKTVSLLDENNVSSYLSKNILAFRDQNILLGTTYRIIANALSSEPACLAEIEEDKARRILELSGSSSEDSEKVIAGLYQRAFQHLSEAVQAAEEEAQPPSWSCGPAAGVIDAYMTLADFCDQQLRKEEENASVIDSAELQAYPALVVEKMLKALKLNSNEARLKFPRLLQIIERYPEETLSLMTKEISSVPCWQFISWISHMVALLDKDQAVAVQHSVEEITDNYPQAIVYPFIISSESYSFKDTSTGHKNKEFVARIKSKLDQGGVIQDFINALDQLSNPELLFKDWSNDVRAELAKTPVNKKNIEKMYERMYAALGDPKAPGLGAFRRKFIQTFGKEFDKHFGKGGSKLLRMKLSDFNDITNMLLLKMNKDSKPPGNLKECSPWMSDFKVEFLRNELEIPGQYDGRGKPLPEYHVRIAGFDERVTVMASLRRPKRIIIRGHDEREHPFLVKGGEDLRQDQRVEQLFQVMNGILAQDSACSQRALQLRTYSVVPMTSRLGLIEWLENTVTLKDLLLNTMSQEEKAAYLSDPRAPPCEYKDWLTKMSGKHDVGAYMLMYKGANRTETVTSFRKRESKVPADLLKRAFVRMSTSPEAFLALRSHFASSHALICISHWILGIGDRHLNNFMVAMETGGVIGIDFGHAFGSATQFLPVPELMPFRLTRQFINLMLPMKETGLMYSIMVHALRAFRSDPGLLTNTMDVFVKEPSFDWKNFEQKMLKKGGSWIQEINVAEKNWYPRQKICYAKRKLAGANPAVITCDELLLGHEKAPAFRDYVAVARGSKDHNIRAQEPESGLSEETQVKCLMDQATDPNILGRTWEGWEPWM

No constants are given. Whether binding was seen depends on the method and setting. Binding seen in cells or lysates may run through a third protein. Some results given as binding are weak or reduced against the parent protein; the word gives no strength.

The target of this test is insulin-like growth factor-binding protein 3 (human (endogenous in human BCa cells)) (UniProt P17936). The test can be described thus: co-IP; Co-IP Kit (Beyotime); lysates from 1 × 10^7 cells incubated overnight at 4 °C with antibody-conjugated protein A/G magnetic beads; BCa cells cisplatin-treated (2 μM) or hypoxic (1% O2) against untreated; precipitating antibody not stated.

With “DNA-dependent protein kinase catalytic subunit (from UniProt P78527 1-4128) (enzyme)”, the binding entry is “binds”.
Then “epidermal growth factor receptor (from UniProt P00533 25-1210)”, with “binds”.
